The list shows a part of the results.
Target: OsWRKY34 (Oryza sativa, UniProt Q0JBA9 1-250)
Experiment: protein-binding microarray (RPBM); PBS, 2% BSA, 51.3 ng/ul salmon testes DNA, 50 uM zinc acetate, 200 nM TF, 25 C, 1 h; high values mean tight binding
Conditions: protein: recombinant; tags: N-terminal polyhistidine and DsRed monomer fusion (pET32a); label: CyDye5-dUTP incorporated in the synthesized complementary strand; 3' TTTTT single-stranded linker to array surface; dsDNA, one strand shown
Method in brief: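 Transcription factors were each fused at the N-terminus to a polyhistidine tag plus DsRed and expressed in E. coli BL21-CodonPlus before Ni–NTA purification. Binding to a double-stranded custom Agilent array was carried out with 200 nM protein at 25 °C for 1 h in PBS, 2% BSA, salmon testes DNA and 50 µM zinc acetate. The binding signal is per-feature fluorescence intensity, in arbitrary units, on an Axon 4000B scanner.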

The chains behind the UniProt entries cited, without tags or fusion partners.
UniProt Q0JBA9, entry or part of it: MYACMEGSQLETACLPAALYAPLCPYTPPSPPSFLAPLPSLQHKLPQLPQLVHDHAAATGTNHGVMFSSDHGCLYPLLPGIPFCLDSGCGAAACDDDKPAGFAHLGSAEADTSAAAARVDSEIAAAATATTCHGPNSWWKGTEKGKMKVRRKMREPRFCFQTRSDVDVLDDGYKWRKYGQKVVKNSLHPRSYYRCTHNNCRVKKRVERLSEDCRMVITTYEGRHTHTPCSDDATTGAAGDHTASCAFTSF

Sequence	binding signal
GTAGTCCTTGGTCCTCGCCGGCACGTCCTTCCACATGGCCCGGAGTCACCTAGTGCAG	8260 fluorescence intensity (a.u.)
TTTCCGCCGCGGCGAGGAGGAGGAGGAGGAGGAGGGGCGACGGAGTCACCTAGTGCAG	9980 fluorescence intensity (a.u.)
GAGGGACGTCCTCGCACGATCGCCGTTCATCCCGCATCCACGGAGTCACCTAGTGCAG	8710 fluorescence intensity (a.u.)
AGAGATGGGAGGGGAGGGAGAGAGAGACGAGAGAGATTGACGGAGTCACCTAGTGCAG	10300 fluorescence intensity (a.u.)
TATGTTTTTATTGGTTTAAATAGTTAATCTCAATATTCTGCGGAGTCACCTAGTGCAG	8550 fluorescence intensity (a.u.)
AAGCGCCTGGTAGCGGAGAGTGGGAAAGAGCTGGCTGGCGCGGAGTCACCTAGTGCAG	60400 fluorescence intensity (a.u.)
ATCCCAAACACTCTCGCCTCGTCTCCTCTCACACCACACGCGGAGTCACCTAGTGCAG	10500 fluorescence intensity (a.u.)
ACCGTCCCCGCAGGCAAGCCAGCCCAAATGCCTCGAATAACGGAGTCACCTAGTGCAG	8120 fluorescence intensity (a.u.)
CACATGTTTTTTCTGTGTAACCATCTGTTTCTGAATTCTGCGGAGTCACCTAGTGCAG	8420 fluorescence intensity (a.u.)
GTTTTCATTATTAATGTTGATTCACTTGTATTTTTCCATACGGAGTCACCTAGTGCAG	10300 fluorescence intensity (a.u.)
TCCCGATCGCTTCAATCATTGATCACCAAAGACACGCTAGCGGAGTCACCTAGTGCAG	8120 fluorescence intensity (a.u.)
TGTAATCTTACCTCTTTGCTGTTTTCATCTATTAAATTTCCGGAGTCACCTAGTGCAG	10400 fluorescence intensity (a.u.)
AATCGCATGTAAGGTTATTATGGTTTCAGTCATGTGTTCGCGGAGTCACCTAGTGCAG	10400 fluorescence intensity (a.u.)
TAACTTAACGTGATTTTCCTGTATGGACCTTAATTATGTTCGGAGTCACCTAGTGCAG	8580 fluorescence intensity (a.u.)
ATAATATTATACTGTACTTTGCTCGCTCATTTTCACACCCCGGAGTCACCTAGTGCAG	9060 fluorescence intensity (a.u.)
CAATGTACTACTGCTTATACTACCTCCGTCCCAAAATAAGCGGAGTCACCTAGTGCAG	11300 fluorescence intensity (a.u.)
TCGGTGGGTGGTTGGGGATATTGCAAAAAGTATATAAAAACGGAGTCACCTAGTGCAG	15800 fluorescence intensity (a.u.)
TTGTGCTTGTAGTAATTCTTTTTTTTTTTAACGACGGTACCGGAGTCACCTAGTGCAG	8780 fluorescence intensity (a.u.)
TTATCTGATTCCTATGTTTTTCCTGCGGTCCAATCAAACGCGGAGTCACCTAGTGCAG	8950 fluorescence intensity (a.u.)
AAACTTTGGCTCTTGTACTTCTAGTTTTGGTCTTGTGATACGGAGTCACCTAGTGCAG	11000 fluorescence intensity (a.u.)
CCACTCGTAGTGGTGCTGTGCTCTTTTGATCTTGCTCGTACGGAGTCACCTAGTGCAG	8580 fluorescence intensity (a.u.)

No new results follow: an excerpt of the list.
Sequence	binding signal
TCGGTGGGTGGTTGGGGATATTGCAAAAAGTATATAAAAACGGAGTCACCTAGTGCAG	15800 fluorescence intensity (a.u.)
TTGTGCTTGTAGTAATTCTTTTTTTTTTTAACGACGGTACCGGAGTCACCTAGTGCAG	8780 fluorescence intensity (a.u.)

(continued)

Sequence	binding signal
ATTCGAGTCTCATCTCCATCCTTCACGCGACGTGCTGCTCCGGAGTCACCTAGTGCAG	12100 fluorescence intensity (a.u.)
CCACTCACCACGCGCGCTGCCCGCTTGCCTCCTCTGCCCACGGAGTCACCTAGTGCAG	10200 fluorescence intensity (a.u.)
TCGAGCACGACCACGCCTCACGCCGATCCTCCATCGCGCGCGGAGTCACCTAGTGCAG	8600 fluorescence intensity (a.u.)
ATCTTTTCCATCCTTTGCATCAGCGTCGTACGACTCTCTCCGGAGTCACCTAGTGCAG	11900 fluorescence intensity (a.u.)
CTACCTTGACGCCCACTAACATCCCGTATTGAACATCCCACGGAGTCACCTAGTGCAG	8720 fluorescence intensity (a.u.)
GGCGGGGCCCCACATCGACCGCGCCGTCGGCCCCGCCGCGCGGAGTCACCTAGTGCAG	8310 fluorescence intensity (a.u.)
TCTGCCTCGTCGATCGCCTATTTGCCTTTTCTACCTAGAACGGAGTCACCTAGTGCAG	15100 fluorescence intensity (a.u.)
CAGTCACTTGGTCGAATTTTTTTAATTTCCTTCTGTTCTACGGAGTCACCTAGTGCAG	8920 fluorescence intensity (a.u.)
CCGGTCTCGTTGACCCCGTCTCCACCGCTTGCTCTCGCCGCGGAGTCACCTAGTGCAG	10600 fluorescence intensity (a.u.)
CATTGCATTGCACTGCTGCTGCTTCACTCCACTGCGCACTCGGAGTCACCTAGTGCAG	9300 fluorescence intensity (a.u.)
CGCCATTTTCTCATGCCCGCCGCCGCCTCCACCGCGAGGACGGAGTCACCTAGTGCAG	10400 fluorescence intensity (a.u.)
TCATGGTTTCTGCCTATAATACCGAGCGTACATCCGAGCCCGGAGTCACCTAGTGCAG	8860 fluorescence intensity (a.u.)
TACGTGCCCCATCACATGCAACGATTCTGCGTCGATCGATCGGAGTCACCTAGTGCAG	9440 fluorescence intensity (a.u.)
GGTTTGTTTCTACTTTTTACTGTACTTTGCTACCAAGAAACGGAGTCACCTAGTGCAG	10400 fluorescence intensity (a.u.)
GGTTTCTTGGATTGGGCTGTGGCTGGCGTTGGTCGGAGGACGGAGTCACCTAGTGCAG	19100 fluorescence intensity (a.u.)
CTTTAGTTGTCAGTAGTGGTAACCTGTCTTTTGTGATCGGCGGAGTCACCTAGTGCAG	9160 fluorescence intensity (a.u.)
ACACCATTTTCTTCATTATATAGACTTAAGTACATGCAAACGGAGTCACCTAGTGCAG	8170 fluorescence intensity (a.u.)
TCTTACACGTTATTTTTTTATTGTTATCATACTAAATTCCCGGAGTCACCTAGTGCAG	8400 fluorescence intensity (a.u.)
GTTTGTACTCTTATCTTTTCTGTCTGATTGTTCTGATATTCGGAGTCACCTAGTGCAG	12200 fluorescence intensity (a.u.)
GCTGATTAGTTTCACTGTTGAGCCATCGTGCAACATTGCACGGAGTCACCTAGTGCAG	9600 fluorescence intensity (a.u.)
GTTGACTTTTTGACAAACGTTTGACTTTTCGTCTTATTCACGGAGTCACCTAGTGCAG	17400 fluorescence intensity (a.u.)

Source: PMC7819943, “Rice protein-binding microarrays: a tool to detect cis-acting elements near promoter regions in rice”
